No constants are given. Whether binding was seen depends on the method and setting. Some entries that bind do so weakly or less than the wild type. For some assays here: Tags and fused reporters may be left off the sequences shown.
Tests used:
[1] = molecular target: TetR-EYFP-ZNF518B^878–1074 (human) (UniProt Q9C0D4); assay: fluorescence microscopy-based interaction-trap
[2] = molecular target: TetR-EYFP-ZNF518A^1–970 (human) (UniProt Q6AHZ1); assay: fluorescence microscopy-based interaction-trap
[3] = molecular target: T1, GFP-ZNF518B^344–987 (human) (UniProt Q9C0D4); assay: recruitment to centromeres by fluorescence microscopy
T1 sequence: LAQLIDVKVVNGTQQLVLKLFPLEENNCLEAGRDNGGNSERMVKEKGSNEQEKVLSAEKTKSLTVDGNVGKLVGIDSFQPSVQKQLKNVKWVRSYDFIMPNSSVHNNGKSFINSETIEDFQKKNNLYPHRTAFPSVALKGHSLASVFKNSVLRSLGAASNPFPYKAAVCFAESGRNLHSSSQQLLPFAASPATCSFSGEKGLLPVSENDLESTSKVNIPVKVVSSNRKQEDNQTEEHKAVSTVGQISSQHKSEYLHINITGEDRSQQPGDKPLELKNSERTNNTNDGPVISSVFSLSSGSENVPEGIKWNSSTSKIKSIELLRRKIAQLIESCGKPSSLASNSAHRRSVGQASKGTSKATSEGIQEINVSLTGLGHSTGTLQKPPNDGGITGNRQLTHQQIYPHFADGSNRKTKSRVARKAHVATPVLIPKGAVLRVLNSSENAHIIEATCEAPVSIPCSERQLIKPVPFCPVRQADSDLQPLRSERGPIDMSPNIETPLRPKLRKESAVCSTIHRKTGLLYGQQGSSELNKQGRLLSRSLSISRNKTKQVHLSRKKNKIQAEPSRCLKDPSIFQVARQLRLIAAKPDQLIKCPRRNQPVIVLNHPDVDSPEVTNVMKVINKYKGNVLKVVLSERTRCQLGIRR

Protein sequences, listed by entry. Tags and fused reporters are not part of them. Residues count along the entry.
UniProt Q6AHZ1, residues 1-970: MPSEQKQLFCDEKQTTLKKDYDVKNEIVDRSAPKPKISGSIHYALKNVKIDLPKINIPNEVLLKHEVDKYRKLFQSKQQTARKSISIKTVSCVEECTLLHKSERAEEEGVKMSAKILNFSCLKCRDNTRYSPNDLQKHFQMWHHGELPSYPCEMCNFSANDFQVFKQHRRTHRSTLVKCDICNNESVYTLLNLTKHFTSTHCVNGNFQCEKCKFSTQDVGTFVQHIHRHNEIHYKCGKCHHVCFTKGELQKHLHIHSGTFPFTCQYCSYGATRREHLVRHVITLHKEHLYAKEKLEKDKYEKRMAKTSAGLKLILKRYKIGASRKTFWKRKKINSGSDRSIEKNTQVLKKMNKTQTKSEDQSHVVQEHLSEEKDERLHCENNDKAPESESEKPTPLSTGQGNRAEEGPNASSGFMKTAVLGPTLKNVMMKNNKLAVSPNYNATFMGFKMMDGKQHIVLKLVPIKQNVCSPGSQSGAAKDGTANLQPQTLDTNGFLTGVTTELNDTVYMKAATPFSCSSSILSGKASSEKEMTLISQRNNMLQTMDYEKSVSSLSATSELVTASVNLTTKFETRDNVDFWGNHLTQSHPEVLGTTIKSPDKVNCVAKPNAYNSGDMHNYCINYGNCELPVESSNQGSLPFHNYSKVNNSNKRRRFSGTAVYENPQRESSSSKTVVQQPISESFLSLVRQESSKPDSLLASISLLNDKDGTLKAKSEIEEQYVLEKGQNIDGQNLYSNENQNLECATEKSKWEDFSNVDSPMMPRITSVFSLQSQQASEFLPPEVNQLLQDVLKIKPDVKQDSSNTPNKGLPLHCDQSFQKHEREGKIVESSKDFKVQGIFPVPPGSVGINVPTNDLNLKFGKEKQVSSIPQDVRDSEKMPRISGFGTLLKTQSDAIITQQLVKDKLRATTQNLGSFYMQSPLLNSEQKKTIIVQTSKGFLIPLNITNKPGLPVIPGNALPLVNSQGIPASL
UniProt Q96KQ7: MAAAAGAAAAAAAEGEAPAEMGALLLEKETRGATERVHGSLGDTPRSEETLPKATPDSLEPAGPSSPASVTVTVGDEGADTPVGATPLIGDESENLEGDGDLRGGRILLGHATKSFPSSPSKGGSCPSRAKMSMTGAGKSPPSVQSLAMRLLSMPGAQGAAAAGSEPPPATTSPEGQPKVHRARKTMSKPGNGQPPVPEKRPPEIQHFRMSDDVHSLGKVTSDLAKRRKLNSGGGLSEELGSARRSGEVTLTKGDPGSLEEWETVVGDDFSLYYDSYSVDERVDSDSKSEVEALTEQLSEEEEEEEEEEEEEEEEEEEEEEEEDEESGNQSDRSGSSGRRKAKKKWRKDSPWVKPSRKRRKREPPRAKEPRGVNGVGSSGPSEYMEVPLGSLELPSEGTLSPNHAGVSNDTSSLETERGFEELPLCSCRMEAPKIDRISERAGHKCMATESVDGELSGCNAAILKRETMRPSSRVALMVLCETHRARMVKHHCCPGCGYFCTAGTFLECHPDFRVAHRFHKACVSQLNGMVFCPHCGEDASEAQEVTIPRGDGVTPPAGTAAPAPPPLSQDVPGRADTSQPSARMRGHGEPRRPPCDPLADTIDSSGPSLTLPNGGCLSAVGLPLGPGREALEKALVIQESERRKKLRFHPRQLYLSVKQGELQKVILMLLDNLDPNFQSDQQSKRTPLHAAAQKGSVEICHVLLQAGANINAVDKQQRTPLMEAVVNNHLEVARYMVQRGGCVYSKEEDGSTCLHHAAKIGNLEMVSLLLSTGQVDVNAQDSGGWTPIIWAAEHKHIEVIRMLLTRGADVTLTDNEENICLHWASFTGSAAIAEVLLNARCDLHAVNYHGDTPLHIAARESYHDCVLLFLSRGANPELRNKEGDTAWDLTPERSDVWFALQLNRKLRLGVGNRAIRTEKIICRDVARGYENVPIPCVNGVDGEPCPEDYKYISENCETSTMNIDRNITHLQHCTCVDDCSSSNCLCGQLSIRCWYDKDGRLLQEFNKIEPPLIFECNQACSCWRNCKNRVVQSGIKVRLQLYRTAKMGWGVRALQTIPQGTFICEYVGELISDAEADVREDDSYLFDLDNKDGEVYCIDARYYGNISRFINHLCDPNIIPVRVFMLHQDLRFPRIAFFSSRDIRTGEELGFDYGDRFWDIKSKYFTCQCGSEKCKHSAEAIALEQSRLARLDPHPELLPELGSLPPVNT

[4] = molecular target: T2, GFP-ZNF518B (WT) (human) (UniProt Q9C0D4); assay: as above
T2 sequence: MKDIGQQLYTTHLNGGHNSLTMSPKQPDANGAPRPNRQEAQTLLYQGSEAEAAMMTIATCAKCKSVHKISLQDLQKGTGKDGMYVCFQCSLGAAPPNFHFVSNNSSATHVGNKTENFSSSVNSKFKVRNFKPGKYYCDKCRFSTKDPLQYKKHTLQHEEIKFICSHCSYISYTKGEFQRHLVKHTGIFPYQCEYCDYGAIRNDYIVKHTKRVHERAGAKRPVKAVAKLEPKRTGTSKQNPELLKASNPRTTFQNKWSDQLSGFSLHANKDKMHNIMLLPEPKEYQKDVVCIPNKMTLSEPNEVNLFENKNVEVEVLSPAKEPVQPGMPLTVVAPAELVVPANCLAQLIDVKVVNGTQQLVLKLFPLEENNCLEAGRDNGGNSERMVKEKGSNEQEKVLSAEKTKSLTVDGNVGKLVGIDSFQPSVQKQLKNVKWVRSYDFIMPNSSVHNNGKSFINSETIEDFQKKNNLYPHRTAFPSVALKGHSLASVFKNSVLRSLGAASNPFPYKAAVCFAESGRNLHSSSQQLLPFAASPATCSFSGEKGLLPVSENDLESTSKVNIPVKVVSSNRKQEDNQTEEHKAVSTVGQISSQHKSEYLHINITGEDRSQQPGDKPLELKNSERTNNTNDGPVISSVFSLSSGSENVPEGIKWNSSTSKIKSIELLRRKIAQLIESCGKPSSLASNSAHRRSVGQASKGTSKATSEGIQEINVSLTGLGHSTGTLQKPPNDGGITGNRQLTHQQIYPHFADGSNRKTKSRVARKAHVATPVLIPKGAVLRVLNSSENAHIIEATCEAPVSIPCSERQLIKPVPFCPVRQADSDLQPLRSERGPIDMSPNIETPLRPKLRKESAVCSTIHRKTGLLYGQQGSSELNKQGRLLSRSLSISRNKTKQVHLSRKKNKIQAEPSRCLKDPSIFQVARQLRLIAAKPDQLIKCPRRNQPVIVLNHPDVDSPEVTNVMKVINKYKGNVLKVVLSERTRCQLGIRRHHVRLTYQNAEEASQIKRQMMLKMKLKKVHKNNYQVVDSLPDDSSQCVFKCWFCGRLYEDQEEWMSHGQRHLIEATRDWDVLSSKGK

[5] = molecular target: T3, GFP-ZNF518B^344–1074 (human) (UniProt Q9C0D4); assay: as above
T3 sequence: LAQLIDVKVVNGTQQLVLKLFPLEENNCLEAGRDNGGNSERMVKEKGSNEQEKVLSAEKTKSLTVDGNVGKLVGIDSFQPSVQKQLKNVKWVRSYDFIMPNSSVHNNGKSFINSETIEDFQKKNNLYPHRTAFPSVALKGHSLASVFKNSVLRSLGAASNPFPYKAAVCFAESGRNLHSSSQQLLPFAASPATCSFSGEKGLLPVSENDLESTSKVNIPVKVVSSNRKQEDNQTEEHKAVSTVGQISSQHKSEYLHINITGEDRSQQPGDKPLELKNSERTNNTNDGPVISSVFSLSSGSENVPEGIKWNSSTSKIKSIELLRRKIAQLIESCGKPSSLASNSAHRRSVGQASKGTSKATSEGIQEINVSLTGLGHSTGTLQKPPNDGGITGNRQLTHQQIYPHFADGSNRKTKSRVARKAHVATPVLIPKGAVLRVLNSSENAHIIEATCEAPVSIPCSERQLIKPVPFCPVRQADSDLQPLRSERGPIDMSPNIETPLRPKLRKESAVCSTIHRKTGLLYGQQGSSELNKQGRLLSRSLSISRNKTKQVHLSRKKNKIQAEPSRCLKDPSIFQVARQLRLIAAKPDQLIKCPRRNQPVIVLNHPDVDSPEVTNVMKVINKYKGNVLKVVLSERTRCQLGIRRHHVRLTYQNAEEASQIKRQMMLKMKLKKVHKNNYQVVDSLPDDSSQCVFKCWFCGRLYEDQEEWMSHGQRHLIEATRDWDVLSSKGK

**Q.** How did the binding [1] turn out when “Halo-G9a (from UniProt Q96KQ7 1-1210) (enzyme)” was run?
**A.** Its binding is “binds”.

**Q.** What about the binding [2] of the same substance?
**A.** Its binding is “binds”.

**Q.** And the binding [3]?
**A.** Its binding is “no binding”.

**Q.** What about the binding [4] of the same substance?
**A.** The binding was “binds”.

**Q.** And the binding [5]?
**A.** Its binding is “binds”.

From article doi:10.1101/2022.09.15.508097
